Measurements as given in US20160304578A1 (XYPHOS BIOSCIENCES, published 2016).
No constants are given. Whether binding was seen depends on the method and setting. Some entries that bind do so weakly or less than the wild type. For some assays here: Where a sequence is shown, tags or fusion partners need not be part of it.

Sequences of proteins named here, by UniProt entry; tags and fusion partners are left off. Residues count along the entry.
UniProt P22607, residues 23-375: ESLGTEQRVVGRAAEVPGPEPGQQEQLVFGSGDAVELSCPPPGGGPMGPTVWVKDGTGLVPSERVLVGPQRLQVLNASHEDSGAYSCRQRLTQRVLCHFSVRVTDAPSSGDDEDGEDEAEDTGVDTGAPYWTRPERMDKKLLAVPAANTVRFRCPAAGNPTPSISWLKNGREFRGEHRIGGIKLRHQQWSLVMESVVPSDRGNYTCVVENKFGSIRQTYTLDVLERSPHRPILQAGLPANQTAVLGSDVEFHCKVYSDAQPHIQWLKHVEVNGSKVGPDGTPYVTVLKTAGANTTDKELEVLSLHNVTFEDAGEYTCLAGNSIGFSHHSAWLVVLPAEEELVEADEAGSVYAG

How the values were obtained:
[1] = biological target: FGFR3 (coated on ELISA plates) (UniProt P22607); test: ELISA on FGFR3-coated wells after 1 hour of the protein at 70 °C and 1 hour back at room temperature
[2] = biological target: FGFR3 (coated on ELISA plates) (UniProt P22607); test: ELISA on FGFR3-coated wells after 1 hour of heat
[3] = biological target: FGFR3 (coated on ELISA plates) (UniProt P22607); test: ELISA on FGFR3-coated wells after 1 hour of the protein at 80 °C and 1 hour back at room temperature
[4] = biological target: FGFR3 (coated on ELISA plates) (UniProt P22607); test: ELISA on FGFR3-coated wells after 1 hour of the protein at 60 °C and 1 hour back at room temperature
[5] = biological target: FGFR3 (coated on ELISA plates) (UniProt P22607); test: ELISA: FGFR3 coated on the plate, sMICA protein titrated, bound protein detected with NKG2D-Fc and anti-Fc-HRP
[6] = biological target: FGFR3 (coated on ELISA plates) (UniProt P22607); test: ELISA, FGFR3 coated at 2 ug/ml, detection with NKG2D-Fc and anti-Fc-HRP
[7] = biological target: FGFR3 (coated on ELISA plates) (UniProt P22607); test: ELISA, FGFR3-coated wells, detection with NKG2D-Fc
human NKG2D-Fc [8] = biological target: T1, human NKG2D-Fc (human, UniProt P26718 78-216, limits assumed); test: ELISA, protein captured on FGFR3 is detected with NKG2D-Fc and anti-Fc-HRP
T1 construct: not shown: Fc part
T1 sequence (looked up): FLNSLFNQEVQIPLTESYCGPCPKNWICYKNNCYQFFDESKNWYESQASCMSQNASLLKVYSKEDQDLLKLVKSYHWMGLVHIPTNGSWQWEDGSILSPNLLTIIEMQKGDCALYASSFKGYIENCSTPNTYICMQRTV

[9] = biological target: FGFR3 (coated on ELISA plates) (UniProt P22607); test: ELISA on FGFR3-coated wells after 1 hour of the protein at 90 °C and 1 hour back at room temperature
mouse NKG2D-Fc (mouse) [10] = biological target: T2, mouse NKG2D-Fc (mouse) (UniProt O54709); test: competition ELISA: variant titrated against mouse NKG2D-Fc binding to plate-coated WT sMICA, detection with anti-Fc-HRP
T2 sequence (looked up): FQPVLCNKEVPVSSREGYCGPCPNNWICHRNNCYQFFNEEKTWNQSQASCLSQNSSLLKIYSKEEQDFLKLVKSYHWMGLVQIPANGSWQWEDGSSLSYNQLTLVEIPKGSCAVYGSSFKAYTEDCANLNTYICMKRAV

mouse NKG2D-Fc (mouse) [11] = biological target: T2, mouse NKG2D-Fc (mouse); test: competition ELISA: mouse NKG2D-Fc binding to plate-coated MICA
biotinylated human NKG2D = biological target: T3, biotinylated human NKG2D (human, UniProt P26718 78-216, limits assumed, biotinylated (site not stated)); test: biolayer interferometry (Octet), biotinylated human NKG2D
T3 construct: also called recombinant biotinylated NKG2D
T3 sequence (looked up): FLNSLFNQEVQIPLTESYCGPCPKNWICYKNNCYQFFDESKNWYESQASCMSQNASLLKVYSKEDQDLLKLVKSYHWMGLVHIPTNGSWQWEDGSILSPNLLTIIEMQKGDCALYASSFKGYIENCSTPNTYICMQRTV

human NKG2D-Fc [12] = biological target: T1, human NKG2D-Fc; test: competition ELISA: human NKG2D-Fc binding to plate-coated MICA

Measured: binding

B1: MICA-α3-iFv.2 (designed binder)
chain: EPHSLRYNLTVLSWDGSVQSGFLTEVHLDGQPFLRCDRQKCRAKPQGQWAEDVLGNKTWDRETRDLTGNGKDLRMTLAHIKDQKEGLHSLQEIRVCEIHEDNSTRSSQHFYYDGELFLSQNLETKEWTMPQSSRAQTLAMNVRNFLKEDAMKTKTHYHAMHADCLQELRRYLKSGVVLRRTVPPMVQVTRSEASGGSGDRVTITCRASQDVSTAVAWYQQKPGKAPKLLIYSASFLYSGVPSRFSGSGSGTDFTLTISSLQPEDFATYYCQQSYTTPPTFGQGTKVEIKGGSSRSSSSGGGGSGGGGEVQLVESGGGLVQPGGSLRLSCAASGFTFTSTGISWVRQAPGKGLEWVGRIYPTNGSTNYADSVKGRFTISADTSKNTAYLQMNSLRAEDTAVYYCARTYGIYDLYVDYTEYVMDYWGQGTLVTVSSGGSSRSSSSGGGGSGGGGDIQMTQSPSSLSASGGSGQITVTCRASGFYPWNITLSWRQDGVSLSHDTQQWGDVLPDGQGTYQTWVATRISQGEEQRFTCYMEHSGQHSTHPVPSGKGSHHHHHH
binds: [1] | [2] | [3] | [4] | [5] | [6] | [7] | human NKG2D-Fc [8] | [9]

B2: α1-α2 variant 15 (designed binder)
chain: EPHSLRYNLTVLSWDGSVQSGFLTEVHLDGQPFLRCDRQKCRAKPQGQWAEDVLGNKTWDRETRDLTGWGKDLRMTLAHIKDQKEGLHSLQEIRVCEIHEDNSTRSSQHFYYDGELFLSQNLETNEWTMPQSSRAQTLAMNVRNFLKEDAMETDTHYHAMRADCLQELRRYLKSGVVLRRTVPPMVQVTRSEASGGSGDRVTITCRASQDVSTAVAWYQQKPGKAPKLLIYSASFLYSGVPSRFSGSGSGTDFTLTISSLQPEDFATYYCQQSYTTPPTFGQGTKVEIKGGSSRSSSSGGGGSGGGGEVQLVESGGGLVQPGGSLRLSCAASGFTFTSTGISWVRQAPGKGLEWVGRIYPTNGSTNYADSVKGRFTISADTSKNTAYLQMNSLRAEDTAVYYCARTYGIYDLYVDYTEYVMDYWGQGTLVTVSSGGSSRSSSSGGGGSGGGGDIQMTQSPSSLSASGGSGQITVTCRASGFYPWNITLSWRQDGVSLSHDTQQWGDVLPDGQGTYQTWVATRISQGEEQRFTCYMEHSGQHSTHPVPSGKGSHHHHHH
binds: mouse NKG2D-Fc (mouse) [10] | mouse NKG2D-Fc (mouse) [11] | biotinylated human NKG2D | human NKG2D-Fc [12]

B3: α1-α2 variant 17 (designed binder)
chain: EPHSLRYNLTVLSWDGSVQSGFLTEVHLDGQPFLRCDRQKCRAKPQGQWAEDVLGNKTWDRETRDLTLWGKDLRMTLAHIKDQKEGLHSLQEIRVCEIHEDNSTRSSQHFYYDGELFLSQNLETLEWTMPQSSRAQTLAMNVRNFLKEDAMETDTHYHAMRADCLQELRRYLKSGVVLRRTVPPMVQVTRSEASGGSGDRVTITCRASQDVSTAVAWYQQKPGKAPKLLIYSASFLYSGVPSRFSGSGSGTDFTLTISSLQPEDFATYYCQQSYTTPPTFGQGTKVEIKGGSSRSSSSGGGGSGGGGEVQLVESGGGLVQPGGSLRLSCAASGFTFTSTGISWVRQAPGKGLEWVGRIYPTNGSTNYADSVKGRFTISADTSKNTAYLQMNSLRAEDTAVYYCARTYGIYDLYVDYTEYVMDYWGQGTLVTVSSGGSSRSSSSGGGGSGGGGDIQMTQSPSSLSASGGSGQITVTCRASGFYPWNITLSWRQDGVSLSHDTQQWGDVLPDGQGTYQTWVATRISQGEEQRFTCYMEHSGQHSTHPVPSGKGSHHHHHH
binds: mouse NKG2D-Fc (mouse) [10] | mouse NKG2D-Fc (mouse) [11] | human NKG2D-Fc [12]

B4: α1-α2 variant 18 (designed binder)
chain: EPHSLRYNLTVLSWDGSVQPGFLTEVHLDGQPFLRCDRQKCRAKPQGQWAEDVLGNKTWDRETRDLTLWGKDLRMTLAHIKDQKEGLHSLQEIRVCEIHEDNSTRSSQHFYYDGELFLSQNLETLEWTMPQSSRAQTLAMNVRNFLKEDAMETDTHYHAMRADCLQELRRYLKSGVVLRRTVPPMVQVTRSEASGGSGDRVTITCRASQDVSTAVAWYQQKPGKAPKLLIYSASFLYSGVPSRFSGSGSGTDFTLTISSLQPEDFATYYCQQSYTTPPTFGQGTKVEIKGGSSRSSSSGGGGSGGGGEVQLVESGGGLVQPGGSLRLSCAASGFTFTSTGISWVRQAPGKGLEWVGRIYPTNGSTNYADSVKGRFTISADTSKNTAYLQMNSLRAEDTAVYYCARTYGIYDLYVDYTEYVMDYWGQGTLVTVSSGGSSRSSSSGGGGSGGGGDIQMTQSPSSLSASGGSGQITVTCRASGFYPWNITLSWRQDGVSLSHDTQQWGDVLPDGQGTYQTWVATRISQGEEQRFTCYMEHSGQHSTHPVPSGKGSHHHHHH
binds: mouse NKG2D-Fc (mouse) [10] | mouse NKG2D-Fc (mouse) [11] | human NKG2D-Fc [12]

B5: α1-α2 variant 20 (designed binder)
chain: EPHSLRYNLTVLSWDGSVQSGFLTEVHLDGQPFLRCDRQKCRAKPQGQWAEDVLGNKTWDRETRDLTAWGKDLRMTLAHIKDQKEGLHSLQEIRVCEIHEDNSTRSSQHFYYDGELFLSQNLETLEWTMPQSSRAQTLAMNVRNFLKEDAMQTDTHYRAMHADCLFELRRYLKSGVVLRRTVPPMVQVTRSEASGGSGDRVTITCRASQDVSTAVAWYQQKPGKAPKLLIYSASFLYSGVPSRFSGSGSGTDFTLTISSLQPEDFATYYCQQSYTTPPTFGQGTKVEIKGGSSRSSSSGGGGSGGGGEVQLVESGGGLVQPGGSLRLSCAASGFTFTSTGISWVRQAPGKGLEWVGRIYPTNGSTNYADSVKGRFTISADTSKNTAYLQMNSLRAEDTAVYYCARTYGIYDLYVDYTEYVMDYWGQGTLVTVSSGGSSRSSSSGGGGSGGGGDIQMTQSPSSLSASGGSGQITVTCRASGFYPWNITLSWRQDGVSLSHDTQQWGDVLPDGQGTYQTWVATRISQGEEQRFTCYMEHSGQHSTHPVPSGKGSHHHHHH
notes: Expressed in HEK293 (Expi293)
binds: biotinylated human NKG2D
